According to the supplement of paper PMC4604168 (melanoma cell lines):
The list shows a part of the results. Many values rest on one well or one pass, so single values are uncertain.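 The apoptosis fraction was the count of cleaved-PARP antibody-stained nuclei relative to all DNA-stained nuclei, imaged in 1,536-well plates. Screening doses were set so most cells survived, and baseline and induced cleaved-PARP levels vary greatly across cell lines.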

Columns and labels:
Assay in all cases: cleaved PARP positive nuclei fraction relative to DMSO control; melanoma cells; higher = more apoptosis
Details in all cases: library dose: low library concentration; 72 h
MZ2-MEL = test system: MZ2-MEL
MeWo = test system: MeWo
RPMI7951 = test system: RPMI7951
RVH-421 = test system: RVH-421
SkMel28 = test system: SkMel28
SkMel2 = test system: SkMel2
SkMel30 = test system: SkMel30
SkMel5 = test system: SkMel5
UACC257 = test system: UACC257
UACC62 = test system: UACC62
WM115 = test system: WM115
WM1716 = test system: WM1716
WM1745 = test system: WM1745
WM3526 = test system: WM3526
WM3619 = test system: WM3619
WM451Lu = test system: WM451Lu

Row | SMILES | cleaved PARP positive nuclei fraction (MZ2-MEL) | cleaved PARP positive nuclei fraction (MeWo) | cleaved PARP positive nuclei fraction (RPMI7951) | cleaved PARP positive nuclei fraction (RVH-421) | cleaved PARP positive nuclei fraction (SkMel28) | cleaved PARP positive nuclei fraction (SkMel2) | cleaved PARP positive nuclei fraction (SkMel30) | cleaved PARP positive nuclei fraction (SkMel5) | cleaved PARP positive nuclei fraction (UACC257) | cleaved PARP positive nuclei fraction (UACC62) | cleaved PARP positive nuclei fraction (WM115) | cleaved PARP positive nuclei fraction (WM1716) | cleaved PARP positive nuclei fraction (WM1745) | cleaved PARP positive nuclei fraction (WM3526) | cleaved PARP positive nuclei fraction (WM3619) | cleaved PARP positive nuclei fraction (WM451Lu)
1 | O=C(O)[C@@H]1[O][Sb](=[O])([O][Sb]2(=[O])[O][C@H]([C@H](O)CO)[C@H](O)[C@H](C(=O)O)[O]2)[O][C@H]([C@H](O)CO)[C@@H]1O (some centres undefined) [stibogluconate] + O=C(O)C(=O)Nc1sc2c(c1C(=O)O)CCNC2 [TCS401] (first compound 2 µM, partner dose 1.66667 µM) | 146% | 129% | 161% | 64.3% | 79.1% | 178% | 84.5% | 97.6% | 28.4% | 124% | 140% | 172% | 112% | 70.7% | 94.4% | 60.7%
2 | Cn1c(=O)n(-c2ccc(C(C)(C)C#N)cc2)c2c3cc(-c4cnc5ccccc5c4)ccc3ncc21 + COc1cc(Nc2ncc(F)c(Nc3ccc4c(n3)NC(=O)C(C)(C)O4)n2)cc(OC)c1OC [Tamatinib] (first compound 0.004 µM, partner dose 0.4 µM) | 65.8% | 376% | 84.1% | 90.6% | 160% | 97.6% | 77% | 157% | 168% | 488% | 127% | 186% | 129% | 156% | 110% | 72.7%
3 | Nc1ccn([C@@H]2O[C@H](CO)[C@@H](O)C2(F)F)c(=O)n1 [gemcitabine] + O=C1NC(=O)/C(=C/c2ccc(-c3ccc(F)cc3O)o2)S1 [AS252424] (first compound 0.0004 µM, partner dose 1 µM) | 209% | 93.2% | 195% | 186% | 37.7% | 59.7% | 119% | 71.4% | 142% | 45.2% | 51.8% | 47.3% | 202% | 69.1% | 212% | 254%
4 | CNC(=O)c1cc(Oc2ccc(NC(=O)Nc3ccc(Cl)c(C(F)(F)F)c3)cc2)ccn1 [sorafenib] + O=C(CCCCCCC(=O)Nc1ccccc1)NO [vorinostat] (first compound 0.4 µM, partner dose 0.08 µM) | 41.7% | 184% | 97.1% | 166% | 42.6% | 55.3% | 132% | 138% | 215% | 221% | 48.8% | 114% | 99.1% | 89.4% | 99.8% | 65.1%
5 | Nc1ccn([C@@H]2O[C@H](CO)[C@@H](O)C2(F)F)c(=O)n1 [gemcitabine] + COC(=O)c1sccc1S(=O)(=O)Nc1ccc(Nc2ccccc2)cc1OC [GSK0660] (first compound 0.0004 µM, partner dose 1 µM) | 117% | 131% | 38.9% | 188% | 75.7% | 120% | 44.6% | 75.5% | 79.1% | 126% | 84.3% | 100% | 123% | 40.2% | 143% | 50.4%
6 | CN1CCN(c2ccc3nc(-c4c(N)c5c(F)cccc5[nH]c4=O)[nH]c3c2)CC1 [Dovitinib] + NCC(=O)Nc1ccc(-n2nc(C(F)(F)F)cc2-c2ccc3c(ccc4ccccc43)c2)cc1 [OSU03012] (first compound 0.1 µM, partner dose 1 µM) | 70.3% | 122% | 182% | 40.8% | 106% | 61.7% | 117% | 74.7% | 135% | 156% | 96.6% | 135% | 105% | 311% | 175% | 80.6%
7 | O=C(O)c1ccc2c(c1)nc(Nc1cccc(Cl)c1)c1ccncc12 + O=S(=O)(c1ccccc1)N(CC(F)(F)F)c1ccc(C(O)(C(F)(F)F)C(F)(F)F)cc1 [T0901317] (first compound 0.4 µM, partner dose 1.4 µM) | 151% | 34.5% | 69.2% | 28.4% | 142% | 70.9% | 114% | 151% | 139% | 378% | 336% | 385% | 98.1% | 233% | 93.7% | 78.3%
8 | CC(C)C[C@H](NC(=O)[C@H](Cc1ccccc1)NC(=O)c1cnccn1)B(O)O [Bortezomib] + COc1ccc(-c2ccc3c(N4CCOCC4)nc(N4C[C@@H](C)O[C@@H](C)C4)nc3n2)cc1CO [KU0063794] (first compound 0.001 µM, partner dose 0.02 µM) | 314% | 187% | 116% | 131% | 181% | 66.8% | 337% | 169% | 316% | 207% | 112% | 573% | 156% | 85.2% | 1080% | 109%
9 | CC(C)C[C@H](NC(=O)[C@H](Cc1ccccc1)NC(=O)c1cnccn1)B(O)O [Bortezomib] + O=C(Nc1cccc(Cl)c1)Nc1ncc(CCNc2ncnc3ccsc23)s1 [SNS314] (first compound 0.001 µM, partner dose 0.0008 µM) | 120% | 47.9% | 120% | 61.9% | 83.1% | 68.1% | 156% | 111% | 63.7% | 73.4% | 305% | 690% | 151% | 113% | 286% | 223%
10 | Cn1c(=O)n(-c2ccc(C(C)(C)C#N)cc2)c2c3cc(-c4cnc5ccccc5c4)ccc3ncc21 + CC1(C)NC(=O)N(c2ccc([N+](=O)[O-])c(C(F)(F)F)c2)C1=O [nilutamide] (first compound 0.004 µM, partner dose 1 µM) | 90.5% | 47.8% | 222% | 274% | 205% | 136% | 77.7% | 76% | 48.9% | 84.1% | 140% | 141% | 102% | 120% | 99% | 31.6%
11 | O=C(O)c1ccc2c(c1)nc(Nc1cccc(Cl)c1)c1ccncc12 + O=C(Nc1ccccc1)c1cc([N+](=O)[O-])ccc1Cl [GW9662] (first compound 0.4 µM, partner dose 2 µM) | 164% | 102% | 89.9% | 117% | 210% | 84.8% | 99.9% | 140% | 169% | 63.5% | 72.3% | 293% | 99% | 165% | 106% | 81.5%
12 | C=C(c1ccc(C(=O)O)cc1)c1cc2c(cc1C)C(C)(C)CCC2(C)C [Bexarotene] + COc1ccc2c(c1)CCC1C2CCC2(C)C(NCCCCCCN3C(=O)C=CC3=O)CCC12 [U73122] (first compound 2 µM, partner dose 0.4 µM) | 124% | 128% | 695% | 62.8% | 171% | 67.3% | 75.2% | 163% | 127% | 140% | 56.9% | 133% | 83.8% | 76.6% | 91.3% | 44.2%
13 | Cn1c(=O)n(-c2ccc(C(C)(C)C#N)cc2)c2c3cc(-c4cnc5ccccc5c4)ccc3ncc21 + O=S(=O)(c1ccccc1)N(CC(F)(F)F)c1ccc(C(O)(C(F)(F)F)C(F)(F)F)cc1 [T0901317] (first compound 0.004 µM, partner dose 1.4 µM) | 85.5% | 47.8% | 85.8% | 207% | 94.8% | 41.1% | 18.5% | 227% | 26.8% | 561% | 76.4% | 56.9% | 98.9% | 42.9% | 75.2% | 182%
14 | O=C(O)[C@@H]1[O][Sb](=[O])([O][Sb]2(=[O])[O][C@H]([C@H](O)CO)[C@H](O)[C@H](C(=O)O)[O]2)[O][C@H]([C@H](O)CO)[C@@H]1O (some centres undefined) [stibogluconate] + Oc1cc(-c2nc(-c3ccccc3)[nH]c2-c2ccncc2)ccc1Cl [L779450] (first compound 2 µM, partner dose 0.2 µM) | 54.7% | 113% | 81.4% | 120% | 506% | 155% | 87.3% | 73.1% | 193% | 530% | 141% | 84.8% | 101% | 100% | 96.6% | 267%
15 | O=C(O)[C@@H]1[O][Sb](=[O])([O][Sb]2(=[O])[O][C@H]([C@H](O)CO)[C@H](O)[C@H](C(=O)O)[O]2)[O][C@H]([C@H](O)CO)[C@@H]1O (some centres undefined) [stibogluconate] + NC(=O)Nc1cc(-c2cccc(F)c2)sc1C(=O)N[C@H]1CCCNC1 [AZD7762] (first compound 2 µM, partner dose 0.02 µM) | 137% | 98.2% | 41.5% | 136% | 163% | 110% | 65.3% | 60.1% | 51.6% | 130% | 109% | 241% | 181% | 109% | 119% | 84.6%
16 | Cn1c(=O)n(-c2ccc(C(C)(C)C#N)cc2)c2c3cc(-c4cnc5ccccc5c4)ccc3ncc21 + Cc1cc([N+](=O)[O-])ccc1NS(=O)(=O)c1cc(Cl)ccc1Cl [FH535] (first compound 0.004 µM, partner dose 1 µM) | 69.2% | 32% | 71.1% | 233% | 397% | 146% | 94.8% | 88.9% | 222% | 145% | 134% | 176% | 83.7% | 187% | 115% | 236%
17 | Cc1cc(Nc2cc(N3CCN(C)CC3)nc(/C=C/c3ccccc3)n2)n[nH]1 + O=C(O)c1ccc(-c2c[nH]c3ncc(-c4ccccc4)cc23)cc1C1CCCC1 [GSK650394] (first compound 0.04 µM, partner dose 0.16 µM) | 58.3% | 101% | 134% | 45.5% | 75.4% | 61% | 113% | 68.5% | 104% | 74.7% | 108% | 99.4% | 84.3% | 63.9% | 95.1% | 71.3%
18 | CS(=O)(=O)CCNCc1ccc(-c2ccc3ncnc(Nc4ccc(OCc5cccc(F)c5)c(Cl)c4)c3c2)o1 [lapatinib] + COc1ccc2c(c1)CCC1C2CCC2(C)C(NCCCCCCN3C(=O)C=CC3=O)CCC12 [U73122] (first compound 0.8 µM, partner dose 0.4 µM) | 83.4% | 71.1% | 76.1% | 128% | 180% | 25.6% | 61.4% | 79.1% | 222% | 125% | 92.6% | 55.9% | 82.5% | 74.6% | 108% | 63.3%
19 | Nc1ccn([C@@H]2O[C@H](CO)[C@@H](O)C2(F)F)c(=O)n1 [gemcitabine] + CN(NC(=O)CC(=O)NN(C)C(=S)c1ccccc1)C(=S)c1ccccc1 [STA4783] (first compound 0.0004 µM, partner dose 0.006 µM) | 117% | 77.7% | 97.9% | 85.3% | 137% | 141% | 568% | 133% | 63.2% | 42.9% | 223% | 133% | 311% | 118% | 162% | 211%

Four consecutive records out of the list so far, quoted:
Row | SMILES | cleaved PARP positive nuclei fraction (MZ2-MEL) | cleaved PARP positive nuclei fraction (MeWo) | cleaved PARP positive nuclei fraction (RPMI7951) | cleaved PARP positive nuclei fraction (RVH-421) | cleaved PARP positive nuclei fraction (SkMel28) | cleaved PARP positive nuclei fraction (SkMel2) | cleaved PARP positive nuclei fraction (SkMel30) | cleaved PARP positive nuclei fraction (SkMel5) | cleaved PARP positive nuclei fraction (UACC257) | cleaved PARP positive nuclei fraction (UACC62) | cleaved PARP positive nuclei fraction (WM115) | cleaved PARP positive nuclei fraction (WM1716) | cleaved PARP positive nuclei fraction (WM1745) | cleaved PARP positive nuclei fraction (WM3526) | cleaved PARP positive nuclei fraction (WM3619) | cleaved PARP positive nuclei fraction (WM451Lu)
7 | O=C(O)c1ccc2c(c1)nc(Nc1cccc(Cl)c1)c1ccncc12 + O=S(=O)(c1ccccc1)N(CC(F)(F)F)c1ccc(C(O)(C(F)(F)F)C(F)(F)F)cc1 [T0901317] (first compound 0.4 µM, partner dose 1.4 µM) | 151% | 34.5% | 69.2% | 28.4% | 142% | 70.9% | 114% | 151% | 139% | 378% | 336% | 385% | 98.1% | 233% | 93.7% | 78.3%
8 | CC(C)C[C@H](NC(=O)[C@H](Cc1ccccc1)NC(=O)c1cnccn1)B(O)O [Bortezomib] + COc1ccc(-c2ccc3c(N4CCOCC4)nc(N4C[C@@H](C)O[C@@H](C)C4)nc3n2)cc1CO [KU0063794] (first compound 0.001 µM, partner dose 0.02 µM) | 314% | 187% | 116% | 131% | 181% | 66.8% | 337% | 169% | 316% | 207% | 112% | 573% | 156% | 85.2% | 1080% | 109%
9 | CC(C)C[C@H](NC(=O)[C@H](Cc1ccccc1)NC(=O)c1cnccn1)B(O)O [Bortezomib] + O=C(Nc1cccc(Cl)c1)Nc1ncc(CCNc2ncnc3ccsc23)s1 [SNS314] (first compound 0.001 µM, partner dose 0.0008 µM) | 120% | 47.9% | 120% | 61.9% | 83.1% | 68.1% | 156% | 111% | 63.7% | 73.4% | 305% | 690% | 151% | 113% | 286% | 223%
10 | Cn1c(=O)n(-c2ccc(C(C)(C)C#N)cc2)c2c3cc(-c4cnc5ccccc5c4)ccc3ncc21 + CC1(C)NC(=O)N(c2ccc([N+](=O)[O-])c(C(F)(F)F)c2)C1=O [nilutamide] (first compound 0.004 µM, partner dose 1 µM) | 90.5% | 47.8% | 222% | 274% | 205% | 136% | 77.7% | 76% | 48.9% | 84.1% | 140% | 141% | 102% | 120% | 99% | 31.6%
